Data as given in PubChem BioAssay AID504808 (Drosophila RNAi Screening Center, 2011).
Screen: 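Genes whose loss lifts activity of an E2F-responsive reporter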 (primary screen). System: Drosophila S2 cells. Knock-down reagent: long dsRNA against Drosophila genes. Measured: 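Dual luciferase plate measurements; E2F-specific signal taken as firefly over Renilla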. Reading the numbers: E2F firefly: higher = more E2F reporter activity; Renilla normaliser: higher = more normaliser reporter signal. Active means: 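a knock-down counted as active when the firefly/Renilla E2F signal rose above 50%, a threshold chosen arbitrarily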.
The deposit covers about 21,000 reagents; below is an unselected part of those that have a named target and a result. In the full data, 18 (0.084%) are marked active. 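Raw counts without plate normalisation, one of two replicates; the ratio scores behind the calls were not deposited.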 Names joined by + are all predicted targets of the reagent. Not stated in the record: the amount of reagent, the time to read-out.

gene	DRSC id	E2F firefly, rep 1	Renilla normaliser, rep 1	outcome
CG13712 (GeneID 38574)	DRSC08321	94620	3674	inactive
CG17327 (GeneID 41598)	DRSC15225	1.14e5	5216	inactive
CG14022 (GeneID 33763)	DRSC02352	1.45e5	4812	inactive
Rnp4F (GeneID 31448)	DRSC18706	7523	780	inactive
CG5001 (GeneID 33308)	DRSC00673	1.66e5	5886	inactive
CG18870 (GeneID 59218)	DRSC04313	1.08e5	4878	inactive
Srpk79D (GeneID 40461)	DRSC11668	82805	3683	inactive
Srpk79D (GeneID 40461)	DRSC11856	1.41e5	6597	inactive
CG9416 (GeneID 37223)	DRSC07339	1.66e5	5633	inactive
Sgp (GeneID 34188)	DRSC02195	81784	3170	inactive
Trp1 (GeneID 34333)	DRSC03465	1.64e5	5622	inactive
CG14258 (GeneID 43260)	DRSC14753	1.35e5	7621	inactive
l(2)k09913 (GeneID 37661)	DRSC04699	76543	3755	inactive
Cdc50 (GeneID 32615)	DRSC20224	1.47e5	6658	inactive
CG31797 (GeneID 35203)	DRSC02476	1.10e5	4194	inactive
CG31797 (GeneID 35203)	DRSC02477	1.02e5	4151	inactive
Gmd (GeneID 33716)	DRSC03119	94380	4153	inactive
CG31272 (GeneID 326130)	DRSC16058	1.31e5	5991	inactive
CG30411 (GeneID 246600)	DRSC04004	1.37e5	5589	inactive
Rab27 (GeneID 31103)	DRSC18567	1810	1128	inactive
CG14963 (GeneID 38383)	DRSC08422	95793	3855	inactive
MsR1 (GeneID 38298)	DRSC08615	1.09e5	4126	inactive
alpha-Spec (GeneID 38231)	DRSC08704	70463	3290	inactive
CG9394 (GeneID 37399)	DRSC04550	1.01e5	4003	inactive
dUTPase (GeneID 34529)	DRSC01998	81160	3025	inactive
lectin-24Db (GeneID 53550)	DRSC00553	82198	3578	inactive
CG34283 (GeneID 5740817)	DRSC13313	44404	3007	inactive
CG18765 (GeneID 59149)	DRSC15392	1.45e5	6962	inactive
CG42525 (GeneID 8674097)	DRSC08026	1.26e5	4862	inactive
beat-IV (GeneID 42778)	DRSC14195	70976	3249	inactive
beat-IV (GeneID 42778)	DRSC14673	1.03e5	5291	inactive
CG32846 (GeneID 318244)	DRSC08012	1.41e5	4294	inactive
Best3 (GeneID 39661)	DRSC09880	1.58e5	7816	inactive
Lamp1 (GeneID 35411)	DRSC03727	97159	3830	inactive
CG17687 (GeneID 39495)	DRSC10279	1.38e5	7457	inactive
tor (GeneID 35717)	DRSC07707	1.46e5	4702	inactive

Continued, starting with the last 3 of the part before.
gene	DRSC id	E2F firefly, rep 1	Renilla normaliser, rep 1	outcome
Lamp1 (GeneID 35411)	DRSC03727	97159	3830	inactive
CG17687 (GeneID 39495)	DRSC10279	1.38e5	7457	inactive
tor (GeneID 35717)	DRSC07707	1.46e5	4702	inactive
CG14630 (GeneID 44620)	DRSC18166	51620	3756	inactive
CG14630 (GeneID 44620)	DRSC18653	49532	3470	inactive
CG14855 (GeneID 41789)	DRSC14979	1.07e5	5317	inactive
Pisd (GeneID 42849)	DRSC15935	77007	4061	inactive
btsz (GeneID 3346167)	DRSC14982	98693	5298	inactive
btsz (GeneID 3346167)	DRSC16231	1.12e5	5970	inactive
CG13955 (GeneID 35968)	DRSC06443	1.44e5	4990	inactive
cerv (GeneID 32492)	DRSC19681	1.56e5	7077	inactive
CG12320 (GeneID 42189)	DRSC14498	1.47e5	7351	inactive
CG10343 (GeneID 35127)	DRSC02041	1.09e5	4433	inactive
CG4168 (GeneID 34889)	DRSC01446	1.25e5	5446	inactive
CG4168 (GeneID 34889)	DRSC01447	1.37e5	5325	inactive
CG4168 (GeneID 34889)	DRSC01933	74991	3304	inactive
Ucp4B (GeneID 33833)	DRSC02665	1.48e5	5417	inactive
RpL5 (GeneID 3355124)	DRSC03801	64308	4535	inactive
CG31788 (GeneID 318942)	DRSC01630	1.31e5	5195	inactive
CG14185 (GeneID 40197)	DRSC10184	1.24e5	7711	inactive
CG7110 (GeneID 34757)	DRSC03011	78597	3185	inactive
CG7110 (GeneID 34757)	DRSC03012	96994	4313	inactive
CG42824 + CG42823	DRSC13230	73314	2042	inactive
conu (GeneID 3355133)	DRSC07810	1.21e5	3741	inactive
slmo + CG34179	DRSC03143	75860	3341	inactive
CG14089 (GeneID 40101)	DRSC10093	1.53e5	6576	inactive
Nf-YA (GeneID 39091)	DRSC10385	80638	4901	inactive
CG13855 (GeneID 42629)	DRSC14705	1.35e5	6865	inactive
CG45002 (GeneID 32688)	DRSC20144	2.48e5	7242	inactive
CG13575 (GeneID 37883)	DRSC04211	1.10e5	4300	inactive
CG10081 (GeneID 37226)	DRSC05962	1.46e5	5193	inactive
crol (GeneID 34592)	DRSC03514	68296	3161	inactive
CG8034 (GeneID 32924)	DRSC20076	1.31e5	5641	inactive
Patsas (GeneID 34634)	DRSC02975	90603	3498	inactive
mbm (GeneID 33194)	DRSC00319	88999	4524	inactive
CG9130 + CG9133	DRSC08624	1.00e5	4270	inactive
CG9130 + CG9133	DRSC08625	74653	4116	inactive
CG13622 (GeneID 42923)	DRSC14624	1.12e5	5600	inactive
CG31784 (GeneID 318939)	DRSC01574	1.26e5	5222	inactive
CG8664 (GeneID 32719)	DRSC20116	1.56e5	5390	inactive
Hsp70Bb + Hsp70Ba + Hsp70Bc + 1 more	DRSC21247	91006	6770	inactive
Hsp70Bb + Hsp70Ba + Hsp70Bc + 1 more	DRSC21248	85996	6565	inactive
porin (GeneID 34500)	DRSC03594	80096	3337	inactive
CG9777 (GeneID 32633)	DRSC20208	1.61e5	6237	inactive
CG5906 (GeneID 39343)	DRSC10557	1.38e5	7025	inactive
mtTFB1 + Ccdc56	DRSC10809	66433	3334	inactive
Pss (GeneID 40281)	DRSC11757	1.43e5	8474	inactive
CG33453 (GeneID 2768851)	DRSC05782	1.71e5	5943	inactive
sdk (GeneID 31017)	DRSC18831	2121	672	inactive
tos (GeneID 35119)	DRSC03624	68168	3422	inactive
CG1628 (GeneID 31990)	DRSC18109	6738	760	inactive
Cpr92F (GeneID 42450)	DRSC15819	1.15e5	7032	inactive
Nrg (GeneID 31792)	DRSC17573	92577	2621	inactive
Nrg (GeneID 31792)	DRSC18688	7418	728	inactive
Ubr3 (GeneID 31713)	DRSC17987	7544	660	inactive
Ubr3 (GeneID 31713)	DRSC17997	1.15e5	5225	inactive
Lst8 (GeneID 31903)	DRSC18262	7778	704	inactive
mof (GeneID 31518)	DRSC18795	39920	3598	inactive
CG17237 (GeneID 33411)	DRSC00491	1.78e5	6207	inactive
Scgdelta (GeneID 31129)	DRSC18544	1.11e5	5827	inactive
att-ORFB + DPCoAC	DRSC15556	1.37e5	7745	inactive
Invadolysin (GeneID 49580)	DRSC15527	1.35e5	5736	inactive
slgA (GeneID 33117)	DRSC20586	1.53e5	5702	inactive
CG1663 (GeneID 36012)	DRSC06613	1.58e5	4885	inactive
Fign (GeneID 33544)	DRSC00592	92755	4050	inactive
dom (GeneID 45655)	DRSC04558	1.39e5	187	active
dom (GeneID 45655)	DRSC04559	1.22e5	4323	inactive
Mctp (GeneID 37165)	DRSC06510	1.56e5	5517	inactive
CG3594 (GeneID 37964)	DRSC04393	83291	3293	inactive
Cog4 (GeneID 34442)	DRSC03057	86805	3436	inactive
CG3149 (GeneID 31489)	DRSC17732	7447	748	inactive
kek4 (GeneID 34718)	DRSC03220	88410	3502	inactive
Su(z)2 (GeneID 36432)	DRSC07558	82605	4246	inactive
CG15252 (GeneID 31931)	DRSC17981	1.20e5	5416	inactive
